No constants are given. Whether binding was seen depends on the method and setting. In cells and extracts the contact can be indirect. These calls come from enrichment with a bait or labelling near it, and not all partners need be listed. Tags and fused reporters may be left off the sequences shown.
Columns and labels:
[1] = molecular target: T1, lamin-conjugated miniTurboID tagged with V5 (V5-mT-Lamin) (Drosophila) (UniProt P08928); assay: proximity labelling; S2 cells expressing V5-mT-Lamin or V5-mT, 0.5 mM CuSO4 and 50 uM biotin for 6 h, streptavidin magnetic beads, 2DICAL mass spectrometry in triplicate; >2-fold enrichment and P<0.05 over V5-mT
T1 sequence: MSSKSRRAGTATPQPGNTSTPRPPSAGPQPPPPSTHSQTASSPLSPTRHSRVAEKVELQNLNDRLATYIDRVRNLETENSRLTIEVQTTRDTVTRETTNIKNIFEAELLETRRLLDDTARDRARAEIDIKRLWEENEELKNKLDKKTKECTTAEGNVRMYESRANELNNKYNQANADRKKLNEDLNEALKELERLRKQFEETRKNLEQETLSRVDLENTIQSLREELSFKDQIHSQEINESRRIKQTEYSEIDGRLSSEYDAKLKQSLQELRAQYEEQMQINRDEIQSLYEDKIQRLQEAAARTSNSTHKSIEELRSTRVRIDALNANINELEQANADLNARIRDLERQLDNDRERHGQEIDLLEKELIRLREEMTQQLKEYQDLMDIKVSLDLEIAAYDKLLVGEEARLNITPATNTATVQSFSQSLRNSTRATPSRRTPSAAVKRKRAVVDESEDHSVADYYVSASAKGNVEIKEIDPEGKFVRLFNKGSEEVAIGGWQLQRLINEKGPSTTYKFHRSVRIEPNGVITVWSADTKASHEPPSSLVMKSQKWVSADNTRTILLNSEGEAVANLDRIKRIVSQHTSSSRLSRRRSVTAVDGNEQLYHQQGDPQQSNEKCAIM

[2] = molecular target: T2, Flag-tagged PIG-B (PIG-B-Flag) (Drosophila) (UniProt Q9VZM5); assay: affinity purification with mass spectrometry; S2 cells stably expressing PIG-B-Flag crosslinked with 1% formaldehyde, sonicated in RIPA buffer, anti-DYKDDDDK magnetic beads, 2DICAL; S2 cells without PIG-B-Flag as control; hits >2-fold over control
T2 sequence: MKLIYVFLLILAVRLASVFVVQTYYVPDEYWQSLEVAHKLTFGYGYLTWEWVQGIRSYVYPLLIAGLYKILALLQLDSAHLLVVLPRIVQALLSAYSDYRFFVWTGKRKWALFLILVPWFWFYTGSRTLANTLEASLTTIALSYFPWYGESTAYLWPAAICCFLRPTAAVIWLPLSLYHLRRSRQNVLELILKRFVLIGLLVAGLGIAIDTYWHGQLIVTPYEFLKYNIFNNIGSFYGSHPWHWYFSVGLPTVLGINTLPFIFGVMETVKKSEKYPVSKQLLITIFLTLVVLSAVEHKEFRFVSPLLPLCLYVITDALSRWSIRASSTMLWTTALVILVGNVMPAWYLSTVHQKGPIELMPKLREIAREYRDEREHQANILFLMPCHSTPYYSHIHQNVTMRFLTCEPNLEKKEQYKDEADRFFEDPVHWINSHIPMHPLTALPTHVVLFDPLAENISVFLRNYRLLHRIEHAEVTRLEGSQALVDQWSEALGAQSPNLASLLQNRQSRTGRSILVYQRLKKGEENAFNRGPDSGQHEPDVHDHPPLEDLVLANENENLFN

[3] = molecular target: T1, lamin-conjugated miniTurboID tagged with V5 (V5-mT-Lamin) (Drosophila); assay: proximity labelling; S2 cells expressing V5-mT-Lamin or V5-mT, 0.5 mM CuSO4 and 50 uM biotin for 6 h, streptavidin magnetic beads, immunoblot with anti-PIG-B

B1: Bicaudal D (BicD) (protein, UniProt P16568 1-782)
chain: MSSASNNGPSADQSVQDLQMEVERLTRELDQVSSASAQSAQYGLSLLEEKSALQQKCEELETLYDNTRHELDITQEALTKFQTSQKVTNKTGIEQEDALLNESAARETSLNLQIFDLENELKQLRHELERVRNERDRMLQENSDFGRDKSDSEADRLRLKSELKDLKFRETRMLSEYSELEEENISLQKQVSSLRSSQVEFEGAKHEIRRLTEEVELLNQQVDELANLKKIAEKQMEEALETLQGEREAKYALKKELDGHLNRESMYHISNLAYSIRSNMEDNASNNSDGEEENLALKRLEADLSTELKSPDGTKCDLFSEIHLNELKKLEKQLESMESEKTHLTANLREAQTSLDKSQNELQNFMSRLALLAAHVDALVQLKKQIDVKEQGKEGGQKKDELEQQLRALISQYANWFTLSAKEIDGLKTDIAELQKGLNYTDATTTLRNEVTNLKNKLLATEQKSLDLQSDVQTLTHISQNAGQSLGSARSTLVALSDDLAQLYHLVCTVNGETPTRVLLDHKTDDMSFENDSLTAIQSQFKSDVFIAKPQIVEDLQGLADSVEIKKYVDTVSDQIKYLKTAVEHTIDMNKHKIRSEGGDALEKVNTEEMEELQEQIVKLKSLLSVKREQIGTLRNVLKSNKQTAEVALTNLKSKYENEKIIVSDTMSKLRNELRLLKEDAATFSSLRAMFAARCEEYVTQVDDLNRQLEAAEEEKKTLNQLLRLAVQQKLALTQRLEEMEMDREMRHVRRPMPAQRGTSGKSSFSTRPSSRNPASSNANPF
[1]
  binding: binds

B2: Otefin (Ote) (protein, UniProt P20240 1-424)
chain: MADVDDFDSLSNAELRAKMLAQGLPNIPVTDSSRKVLVKRLRASIGGQASPAASPKKTNRRETLAPAPGAPSAPAAASTPVDKLDGNKVAPATKARRTITAAEAKEPVRRLPEEAIRRRPDEADRLRSEEPVAARKPTTAPAAQPVQTRRTSTSSGSERKVVEPLRKPETIVEQPASSKRADREENYLKVNSLIVLESDEEEDEQLVQAADLVEQEHAARQKTTKLASSGTTTYEYKSKVVEPPRRQVYEATAAPVLPPSVPSARAQTTSSTRSYDYASNPAPGRYSSFVRTAAQGYVTAEAPPVASYSSSYKRTYANELSDDTDSKEDQYESTFARNLARLRAERIGDRISPYSRRTLASGNAGSGSLGYEPRARRSLRPNDNSVSEAFNRWLNSLEQKYHIKSKLFIVLLVLLLIGVYYIFY
[1]
  binding: binds
[2]
  binding: binds

B3: Lamin-B receptor (LBR) (protein, UniProt Q8MLV1 1-741)
chain: MQHSPSTTTDHIHFAARFFDRNSYTMDRRLRRPRRTEDVSSGPLLAQSKQPSLLPVTRRTGSVTAAGATATATATAGPATRTRASPSRNKVVAPPSPDLGPRTRRSSRPRSSVGPLTGSGSGSSLPIKAAIKARTPIPEVSEVSSPIRLSTSNLPMTLTTNTSSGAPNKAFNTSSVNSGNSFSRTTTSSTTTTTERIEIRAEGDGEVDTDSIRKRITERLRRSVSKTISNLAGTPVTNTEEGSRYSRSVSRSVYDDEKSSKRSYSTGEEDIDEEDELEEDQFRSFNVTRKSATPAEISCRQLKAPREFGGWLGAFLFLLLLPTAVYYLTWSCTARNACQFKHLNLGILLDVNYLTRQVFQPRVVGAFAAYQVVVFLLVALLPGRRVHLTRETYKFNCLAVSLTLLIASGVAEYLKYPVVTFVLRHYLRFCIFGLVGAFVAAAWSYWLVDTAKYNVLRQTLTNDYGRTGSFVVDFALGRQLNPKWLGRVDWKQFQYRLSLVTTLIYATCYIYQTLVWPQKPQLGEQEGYLYQAKYYWNNVNYDPATLFSASCLLFYVLDAIIFEHHLSSSFELQHEGYGCLLLLRYAATPYLLTAVTKYFYEQRVPISCWYAPLAVAALLSLGLLVKRFSCAYKYKYRLNSQSPIFANIETIHTYQGSRLLLSGMWGWVRQPNYLGDIVALLALAAPMALRPAWPPVLGLSLIILLLLHRATRANARNQARYHSSWQRYSTQVRSYILPRVY
[1]
  binding: binds
[2]
  binding: binds

B4: PIG-B (endogenous) (enzyme, UniProt Q9VZM5 1-561)
chain: T2 sequence
[3]
  binding: binds

B5: Torsin (protein, UniProt O77277 25-340)
chain: VDPLTIGAVGAVALGAYFKEHTYCRFAECCDDRNIPARIDELERSLERTLIGQHIVRQHIVPALKAHIASGNKSRKPLVISFHGQPGTGKNFVAEQIADAMYLKGSRSNYVTKYLGQADFPKESEVSNYRVKINNAVRDTLRSCPRSLFIFDEVDKMPSGVFDQLTSLVDYNAFVDGTDNTKAIFIFLSNTAGSHIASHLGSVMKNGRLREDTRLSDFEPLLRKAAYNMDGGMKKTTMIESHVIDHFIPFLPMEKAHVIKCLEAELLRWRRDPKQANNQKIIEDIINSSISYDRTHSLFAISGCKTLEKKVAMAIY
[2]
  binding: binds

B6: Krueppel homolog 2 (Kr-h2) (protein, UniProt Q9V447 1-276)
chain: MSAPTDQPPRSEGAQTNSSERSSQQQEQPQQSQSQNVPAKLLQHFQTNRIDSALWALRLLVIFFTVSYVLPIFTSQQSAFSKVMLANAAISALRLHQRLPAFAFSREFLARLFAEDSCHYMMYSLIFFNIRPSLLVLIPVLLYSVLHASSYSLKLLDLIGQNSWWGARFIISIVEFQAANILKATAFCEIFIMPYAIVLAFMNHAGLMTPVIYYHYLVMRYSSRRNPYPRNAFAELRITFEALAARSPPAFAKIIRGGIGFVNRLAPQLQPAAAQE
[2]
  binding: binds
